Primary screen of a compound library

Measurements from “University of Dundee, Small-Polar-MMV Screening Library” (2021), ChEMBL document CHEMBL3988442.

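Viability assay of Plasmodium falciparum sporozoites; the read-out is not stated. The concentration is filed as 10 mM, unlikely as a test dose, so the dose is not known. The record gives no direction; compounds that gave an IC50 in retests scored well above the rest, so higher reads as lower viability. Strong results were mostly tested again. Of about 34,000 compounds tested this way, about 280 (0.84%) reached 50% or more in at least one test.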

Values are the deposited “Percent Effect”, in %.
The record does not define 0% and 100%; most values in the screen are far below 50% and negative numbers occur (in some assays of this library far below -100).
The compounds are a random part of those screened.
Two or more numbers in one place are separate tests of the same structure; such repeats can differ widely.

structure,effect
Nc1cc(-c2c[nH]nc2C2CCCCN2C(=O)C2CCCC2)ccn1 (configuration not stated),-1.165%
Cc1ccc(CN2CCC(c3cnccn3)CC2)s1,2.115%
O=C(CC1CCCCC1)N1CCC(c2ncc3c(n2)CCNC3)CC1,6.257%
Cc1ncccc1CNCC1CCN(CC(C)O)CC1 (configuration not stated),-23.52% and 43.54% and -6.49%
CCN(CC)c1ccc(NC(=O)NCC2CCOC2)cn1 (configuration not stated),-11.53% and -8.697%
Cc1noc2ncc(C(=O)N3CCCC(n4cccn4)C3)cc12 (configuration not stated),7.135%
Cc1cc(C)c(CNC(=O)N2CCN(c3ccccn3)CC2)c(=O)[nH]1,10.77%
NCC1CCN(C2CCN(c3ccc(-c4ccco4)cc3)CC2)C1 (configuration not stated),-10.92% and -15.11%
[H][C@@]12CCCN1C[C@@H](Cc1ccccc1)N(Cc1cnn(CCC)c1C)C2,7.662%
Cl.O=C(Nc1ccccn1)c1cncc(C2CCNCC2)n1,-0.4476%
COc1cccc(C(=O)NCC(c2cccn2C)N2CCCC2)c1OC (configuration not stated),19.25% and -11.03% and -3.941%
COc1ccccc1N1CC(NC(=O)Cn2cc(C(C)C)nn2)CC1=O (configuration not stated),-1.255%
COCc1cnc2n1CCN(C(=O)c1cc3ccccc3o1)C2C (configuration not stated),9.455%
CCc1c(C)nc2n(c1=O)CC(C(=O)NCc1cccs1)CS2 (configuration not stated),0.4476%
Cc1nc(CN2CCC(N3CCN(C)C3=O)CC2)no1,-4.568%
Cc1c[nH]c(C2COCCN2C(=O)c2n[nH]c(=O)c3ccccc23)n1 (configuration not stated),5.166%
CN(C)c1ncc(I)c(C2CCCN2C)n1.Cl (configuration not stated),4.987%
CCC(NC(=O)c1cc(OC)c2c(c1)OCCO2)c1cccs1 (configuration not stated),-12.39%
C[C@H]1CN(CC2CCOCC2)C[C@@]12CCN(Cc1cccnc1)C2=O.O=C(O)C(F)(F)F.O=C(O)C(F)(F)F,-4.693%
O=C(NCC1CCN(C(=O)c2ccoc2)CC1)c1ccccc1Br,9.091%
Cc1ncsc1C(=O)OCCN1CCCCCC1=O,-13.07%
[H][C@@]12CCN(C(=O)C3CC(F)(F)C3)C[C@]1(COC)CCO2,5.196%
c1cnc(Nc2ccc(C3CCCCN3Cc3ccncc3)cn2)nc1 (configuration not stated),4.812%
CCc1ccc(C(=O)NCCNc2ncccn2)cc1,3.501%
[H][C@]12CC[C@]([H])(CN(S(C)(=O)=O)C1)N(C(=O)CCn1cnc3ccccc31)C2,0.223%
Cc1cnc(N2CCCC3(CCCN(C)C3)C2)nc1 (configuration not stated),1.777%
Cn1ccc2ccc(C(=O)Nc3nc[nH]n3)cc21,-8.447%
Cc1nnc(N2CCOC(C)C2)c(C#N)c1C (configuration not stated),-0.7613%
Fc1cnc(N2CC3(CCN(Cc4ccsc4)C3)C2)nc1.O=C(O)C(F)(F)F,-8.442%
Cc1nn(C)c2cnn(C(C)C(=O)NCc3cccnc3)c12 (configuration not stated),-8.991%
CCc1ncc(CNCc2cccnc2N(C)C)cn1,-20.6%
Cc1noc(C)c1C(=O)NCc1ccnc(OCC(F)(F)F)c1,1.484%
Cc1cnn(CC2CCCN2C(=O)CCc2ccsc2)c1 (configuration not stated),-287.6%
c1ncn(CC2CN(Cc3csc(C4CCCC4)n3)CCO2)n1 (configuration not stated),23.86% and 6.764% and 5.517%
CNC(=O)C1(Cc2cc(C(C)C)no2)CCN(Cc2ccccn2)C1 (configuration not stated),11.15%
CCc1noc(CS(=O)(=O)CC(=O)N2c3ccccc3CC2C)n1 (configuration not stated),-6.77%
CCCc1nc(C)c(C(=O)NCCN2CCOCC2)s1,2.431%
CCNc1cc2c(nn1)CCN(C(=O)c1ccc(CNC(C)=O)o1)C2,1.716%
Cc1cc(C(=O)N2CCc3ncc(CN4CCOCC4)n3CC2)no1,1.371%
c1cncc(-c2noc(CN3CCCCC3Cn3cccn3)n2)c1 (configuration not stated),8.281%
Cn1cc(-c2cnc(N3CCCC3)nc2)cc1C(=O)O,46.45% and -39.13% and -43.15%
O=C(O)C(F)(F)F.[H][C@@]12CCN(c3cccnc3)C[C@]1([H])CN(C(=O)c1ccc(O)cc1)C2,10.44%
CCC(=O)N1CCC(c2nc(N3CCCC3)ncc2S(C)(=O)=O)CC1,5.073%
Cc1cc(C)c2cc(CNC(C)C)c3nn(C)c(=O)n3c2c1,0.7995%
CCc1cnc(CN(C(C)=O)C2CCN(CCc3ccncc3)C2)o1 (configuration not stated),0.8633%
COc1ccc(NC(=O)c2ccc(CN3CC[C@H](O)C3)cc2)c(OC)n1,-15.85% and -8.926%
Cc1cccnc1CN1CCN(C(=O)c2ccn(C(C)(C)C)c2)CC1,5.769%
Cc1cc2c(=O)n3c(nc2s1)CCN(C(=O)c1cnn(C)c1)CC3,1.966%
COc1cc(NC(=O)c2ccccc2F)c(C(=O)N(C)C)cc1OC,-2.181%
CCn1cc(CNCc2ccc(C(=O)OC)cc2)c(C)n1,3.541%
CCSc1ccc(C(C)NC(=O)CNS(C)(=O)=O)cc1 (configuration not stated),11.23%
Cn1cnc2c1C(COCC1CC1)CN(Cc1ccsc1)C2 (configuration not stated),-3.687%
Cc1ncc(CNC(=O)N(C)C2CCN(c3ccccc3)C2=O)s1 (configuration not stated),2.473%
Cc1ccc(C(=O)N2CCCC(n3cccn3)C2)cc1S(C)(=O)=O (configuration not stated),5.503%
COc1cnc(CSc2nnc(C)s2)cc1OCC(N)=O,-8.447%
O=C(CCc1nccs1)N1CCN(c2ccccc2F)CC1,3.043%
COc1ccc(-c2noc(CCC(=O)N3CCOCC3(C)C)n2)cc1,-0.9879%
O=S(=O)(c1ccccc1)N1CCN(CCn2ccnc2)CC1,-10.04%
Cn1c(SCC2OCCc3ccccc32)n[nH]c1=O (configuration not stated),-18.97%
O=C(O)C(F)(F)F.[H][C@@]12CCN(Cc3ccc4c(c3)OCO4)C[C@]1(C(=O)NC(C)C)CCO2,14.56%
Cc1cnc(C(=O)NCc2ccc3c(c2)CCCN3C)cn1,11.57%
COCC1CN(Cc2ccc(OC)cc2)S(=O)(=O)c2cnccc2O1 (configuration not stated),-4.306%
COc1ccc(-n2ccc(C(=O)NCCN3CCCCC3C)n2)cc1 (configuration not stated),0%
Cn1cccc1C(=O)COc1ccc(S(N)(=O)=O)cc1,-10.77% and -20.04%
Cc1noc(-c2ccc(N(C)Cc3ccncc3C)nc2)n1,6.053%
Cc1cn2nc(N3CCCC3Cn3cccn3)sc2n1 (configuration not stated),-6.28%
Cc1ccc(C(=O)NCCCS(C)(=O)=O)c(=O)[nH]1,-0.1183%
CSc1ccc(Cl)c(C(=O)N2CCCC(CNS(C)(=O)=O)C2)c1 (configuration not stated),-1.956%
CN1CC(=O)N(c2ccccc2)CC12CCN(C(=O)c1ccnnc1)C2.O=C(O)C(F)(F)F (configuration not stated),15.35%
Cc1ccc(-c2nc(CN3CCn4c(nnc4C4CC4)C3)co2)cc1,-9.804%
O=C(O)C(F)(F)F.O=C(O)C(F)(F)F.[H][C@]12CCN(C(=O)CC3CC3)CC[C@@]1([H])S(=O)(=O)CCN2Cc1cccnc1,13.25%
O=C(c1ccc(Cn2cccc2)cc1)N1CCN(CCO)CC1,3.209%
Cc1cccc(N2CCCN=C2NC(=O)c2cccc(Cl)c2)c1,-21.16% and -25.57%
CNC(=O)C1Cn2ccnc2C2(CCN(Cc3cccnc3)CC2)O1.O=C(O)C(F)(F)F.O=C(O)C(F)(F)F.O=C(O)C(F)(F)F (configuration not stated),0.9143%
CO[C@H]1CCN(c2ccc(C)nn2)[C@H]1Cc1cnn(C)c1,-19.39%
CC(C)CN1C(=O)C2(CCN(Cc3nccs3)C2)c2ccccc21.O=C(O)C(F)(F)F (configuration not stated),8.794%
Cc1cccc(C)c1NC(=O)c1n[nH]c(-n2cnnc2)n1,6.972%
CCC(CN1CCCC1)n1cncc1-c1cnn(-c2ccccc2)c1.Cl (configuration not stated),25.99%
OCc1cccc(OCc2ccon2)c1,5.104%
Cc1ccc(N2CCCN(C(=O)C(C(C)C)n3cncn3)CC2)nn1 (configuration not stated),-5.931%
Cc1cccc2c1cnn2CCCNC(=O)C(C)C,-7.852%
CCCc1n[nH]cc1C(=O)N1CCC(c2nccn2CCOC)CC1,4.678%
Cc1ccc(N2CCCC(NCc3ccsc3)C2)nn1 (configuration not stated),-3.36%
O=C(CC1CCCO1)NCc1ccc(Br)cc1F (configuration not stated),-7.794%
CN1CCN(Cc2cccnc2)C(=O)C12CCN(Cc1ccco1)CC2.O=C(O)C(F)(F)F.O=C(O)C(F)(F)F.O=C(O)C(F)(F)F,-14.97%

Once more, the final 10:

{"structure": "CC(C)CN1C(=O)C2(CCN(Cc3nccs3)C2)c2ccccc21.O=C(O)C(F)(F)F", "stereo": "configuration not stated", "effect": 8.794}
{"structure": "Cc1cccc(C)c1NC(=O)c1n[nH]c(-n2cnnc2)n1", "effect": 6.972}
{"structure": "CCC(CN1CCCC1)n1cncc1-c1cnn(-c2ccccc2)c1.Cl", "stereo": "configuration not stated", "effect": 25.99}
{"structure": "OCc1cccc(OCc2ccon2)c1", "effect": 5.104}
{"structure": "Cc1ccc(N2CCCN(C(=O)C(C(C)C)n3cncn3)CC2)nn1", "stereo": "configuration not stated", "effect": -5.931}
{"structure": "Cc1cccc2c1cnn2CCCNC(=O)C(C)C", "effect": -7.852}
{"structure": "CCCc1n[nH]cc1C(=O)N1CCC(c2nccn2CCOC)CC1", "effect": 4.678}
{"structure": "Cc1ccc(N2CCCC(NCc3ccsc3)C2)nn1", "stereo": "configuration not stated", "effect": -3.36}
{"structure": "O=C(CC1CCCO1)NCc1ccc(Br)cc1F", "stereo": "configuration not stated", "effect": -7.794}
{"structure": "CN1CCN(Cc2cccnc2)C(=O)C12CCN(Cc1ccco1)CC2.O=C(O)C(F)(F)F.O=C(O)C(F)(F)F.O=C(O)C(F)(F)F", "effect": -14.97}